Residue numbers refer to the chain shown, from its start.

The results in this text go back to patent US7994133B2, “Isozyme-specific antagonists of protein kinase C” (The Board of Trustees of the Leland Stanford Junior …, priority 2003, dated 2011).

Series [1] can be described thus: Fluorescence recovery after photobleaching (FRAP) of cytoplasmic εPKCs. The conditions noted are these: (F∞−F0)/(Fi−F0), averages of at least 10 cells. The class given is cell-based. As for the experimental part:
CHO cells were grown on glass coverslips, and serum-starved as described in Example 4. For each experiment, cells were transferred to a commercially available metal coverslip holder (Molecular Probes) in which the coverslip formed the bottom of a 1 ml bath. The media was then replaced with extracellular buffer (120 mM NaCl, 5 mM KCl, 1.5 mM CaCl2, 1.5 mM MgCl2, 20 mM HEPES and 30 mM glucose). Cells were stimulated by either PMA (100 nM), or with ATP (1 mM) in extracellular buffer. Fluorescence images of GFP-tagged constructs were obtained using the 488 nm excitation line of a laser scanning confocal microscope (Pascal, Zeiss) and emission was collected through a 505-550 nm band pass filter. Cells were imaged on the stage of an inverted microscope (Axiovert 100M) using a 40× Zeiss Plan-apo oil immersion objective with 1.2 numerical aperture (NA). For dual color imaging of CFP and YFP fusion proteins, a spinning disk Nipkow confocal microscope was used. Cells were viewed using an inverted Olympus IX70 microscope with a 40× oil immersion Olympus objective (1.35NA) and images were acquired with a CCD camera (Hamamatsu) and 2×2 pixel binning. […] Under these conditions, and by placing an iris in the beam path, it was possible to bleach 80% of the YFP fluorescence in 500 ms in an area of the cytosol measuring approximately 35 um2. […] Images were exported as 12 or 16 bit files and changes in fluorescence intensity were measured using MetaMorph® data analysis software (Universal Imaging Corp.). To monitor the translocation of PKC, a small region of interest was selected in the cytosol of each cell and fluorescence intensity values graphed against time after subtraction of background values and normalized so that the initial fluorescence was 100%. […]
Different translocation rates may reflect differences in overall mobility (diffusion) of the εPKCs in cells. Therefore, fluorescence recovery after photobleaching (FRAP) of the cytoplasmic enzyme was measured; mobility of εPKCs was measured by monitoring the time required for the fluorescence to recover in a bleached region. […]

In a further series the test system is Arg C. The conditions noted are these: for susceptibility to degradation by Arg C compared to Wt: insect cell-expressed εPKC, room temperature.

B1: D(86)A: εPKC mutant wherein D at position 86 of ΨεRACK on εPKC is substituted with an A (protein)
chain: MVVFNGLLKIKICEAVSLKPTAWSLRHAVGPRPATFLLDPYIALNVDDSRIGQTATKQKTNSPAWHDEFVTDVCNGRKIELAVFHAAPIGYDDFVANCTIQFEELLQNGSRHFEDWIDLEPEGRVYVIIDLSGSSGEAPKDNEERVFRERMRPRKRQGAVRRRVHQVNGHKFMATYLRQPTYCSHCRDFIWGVIGKQGYQCQVCTCVVHKRCHELIITKCAGLKKQETPDQVGSQRFSVNMPHKFGIHNYKVPTFCDHCGSLLWGLLRQGLQCKVCKMNVHRRCETNVAPNCGVDARGIAKVLADLGVTPDKITNSGQRRKKLIAGAESPQPASGGSPSEEDRSKSAPTSPCDQEIKELENNIRKALSFDNRGEEHRAASSPDGQLMSPGENGEVRQGQAKRLGLDEFNFIKVLGKGSFGKVMLAELKGKDEVYAVKVLKKDVILQDDDVDCTMTEKRILALARKHPYLTQLYCCFQTKDRLFFVMEYVNGGDLMFQIQRSRKFDEPRSRFYAAEVTSALMFLHQHGVIYRDLKLDNILLDAEGHCKLADFGMCKEGILNGVTTTTFCGTPDYIAPEILQELEYGPSVDWWALGVLMYEMMAGQPPFEADNEDDLFESILHDDVLYPVWLSKEAVSILKAFMTKNPHKRLGCVASQNGEDAIKQHPFFKEIDWVLLEQKKIKPPFKPRIKTKRDVNNFDQDFTREEPVLTLVDEAIVKQINQEEFKGFSYFGEDLMP
In series [1], B1 registered a mobile fraction of 63±4%. Also, in the series on Arg C, the “susceptibility to degradation by Arg C compared to Wt” value is “did not alter susceptibility”.

B2: D(86)N: εPKC mutant wherein D at position 86 of ΨεRACK in εPKC is substituted with an N (protein)
chain: B1 chain with A86N
In series [1], B2 returned a mobile fraction of 64±2.5%. For the same molecule, in the series with Arg C (Arg C), the “time required for the same extent of degradation as D(86)A or Wt” value is on record as “twice the time”. Further, the “susceptibility to degradation by Arg C compared to Wt” value in the series on Arg C is “significantly more resistant to proteolysis”.

B3: Wt: wild type εPKC, human construct (protein)
chain: B1 chain with A86D
B3: the mobile fraction in series [1] came out at 63±2%.
